Measurements reported in PMC8245473.
Results are given in words; binding and its absence hold for the method and conditions named. Binding seen in cells or lysates may run through a third protein. Some binding calls cover weakened binding; strength is not graded here.

Sequences of proteins named here, by UniProt entry; tags and fusion partners are left off. Residues count along the entry.
UniProt O00206, residues 24-839: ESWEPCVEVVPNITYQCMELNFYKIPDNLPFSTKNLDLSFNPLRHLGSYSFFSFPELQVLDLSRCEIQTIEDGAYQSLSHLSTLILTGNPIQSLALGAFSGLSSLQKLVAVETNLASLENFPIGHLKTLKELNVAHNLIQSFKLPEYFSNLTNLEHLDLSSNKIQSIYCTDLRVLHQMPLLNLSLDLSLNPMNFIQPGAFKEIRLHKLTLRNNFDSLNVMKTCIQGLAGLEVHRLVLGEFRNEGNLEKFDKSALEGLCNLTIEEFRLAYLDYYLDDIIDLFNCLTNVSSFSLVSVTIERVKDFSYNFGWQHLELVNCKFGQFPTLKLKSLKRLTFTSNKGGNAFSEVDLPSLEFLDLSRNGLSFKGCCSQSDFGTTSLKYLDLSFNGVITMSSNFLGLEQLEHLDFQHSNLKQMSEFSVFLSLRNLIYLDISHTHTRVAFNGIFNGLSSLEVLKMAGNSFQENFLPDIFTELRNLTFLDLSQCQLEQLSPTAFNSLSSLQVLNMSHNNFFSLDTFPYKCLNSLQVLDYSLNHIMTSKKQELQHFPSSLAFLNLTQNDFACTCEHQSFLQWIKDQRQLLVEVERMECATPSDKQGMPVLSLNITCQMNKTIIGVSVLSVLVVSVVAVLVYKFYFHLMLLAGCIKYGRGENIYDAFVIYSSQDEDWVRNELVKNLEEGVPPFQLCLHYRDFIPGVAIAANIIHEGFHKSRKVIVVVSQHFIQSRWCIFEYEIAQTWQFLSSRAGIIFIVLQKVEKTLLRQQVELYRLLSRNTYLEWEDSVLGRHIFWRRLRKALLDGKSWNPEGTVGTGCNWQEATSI
UniProt P22366: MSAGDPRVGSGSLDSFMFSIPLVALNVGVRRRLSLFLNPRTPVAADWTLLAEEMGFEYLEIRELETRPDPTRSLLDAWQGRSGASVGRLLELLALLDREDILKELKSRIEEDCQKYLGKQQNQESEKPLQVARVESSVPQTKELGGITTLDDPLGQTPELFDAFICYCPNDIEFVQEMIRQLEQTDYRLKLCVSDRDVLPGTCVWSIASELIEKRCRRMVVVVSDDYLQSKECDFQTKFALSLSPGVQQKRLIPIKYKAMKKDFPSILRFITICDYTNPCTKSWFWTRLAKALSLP
UniProt Q99836: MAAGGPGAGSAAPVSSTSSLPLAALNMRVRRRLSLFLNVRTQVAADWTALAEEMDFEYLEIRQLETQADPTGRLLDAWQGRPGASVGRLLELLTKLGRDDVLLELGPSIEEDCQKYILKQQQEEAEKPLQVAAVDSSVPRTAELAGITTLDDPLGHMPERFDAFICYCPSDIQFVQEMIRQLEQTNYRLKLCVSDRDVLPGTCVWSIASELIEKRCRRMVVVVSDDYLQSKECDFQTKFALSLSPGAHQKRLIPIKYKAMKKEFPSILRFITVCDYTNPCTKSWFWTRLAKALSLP
UniProt P58753: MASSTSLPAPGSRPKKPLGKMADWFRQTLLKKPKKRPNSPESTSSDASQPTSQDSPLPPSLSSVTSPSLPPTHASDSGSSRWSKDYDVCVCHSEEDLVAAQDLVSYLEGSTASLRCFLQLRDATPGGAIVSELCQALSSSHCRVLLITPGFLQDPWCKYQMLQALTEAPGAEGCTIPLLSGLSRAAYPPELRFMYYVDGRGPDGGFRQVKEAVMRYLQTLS
UniProt Q6ZWS8: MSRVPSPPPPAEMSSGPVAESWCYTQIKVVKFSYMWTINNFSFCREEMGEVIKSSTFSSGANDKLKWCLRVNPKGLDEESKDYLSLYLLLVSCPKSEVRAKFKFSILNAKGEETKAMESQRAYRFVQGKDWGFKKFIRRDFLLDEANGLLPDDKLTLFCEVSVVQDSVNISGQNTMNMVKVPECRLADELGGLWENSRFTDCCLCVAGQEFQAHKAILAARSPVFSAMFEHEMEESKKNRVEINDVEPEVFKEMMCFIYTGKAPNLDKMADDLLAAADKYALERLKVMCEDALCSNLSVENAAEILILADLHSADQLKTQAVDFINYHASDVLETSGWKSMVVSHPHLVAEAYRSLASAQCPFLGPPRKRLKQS
UniProt P51617: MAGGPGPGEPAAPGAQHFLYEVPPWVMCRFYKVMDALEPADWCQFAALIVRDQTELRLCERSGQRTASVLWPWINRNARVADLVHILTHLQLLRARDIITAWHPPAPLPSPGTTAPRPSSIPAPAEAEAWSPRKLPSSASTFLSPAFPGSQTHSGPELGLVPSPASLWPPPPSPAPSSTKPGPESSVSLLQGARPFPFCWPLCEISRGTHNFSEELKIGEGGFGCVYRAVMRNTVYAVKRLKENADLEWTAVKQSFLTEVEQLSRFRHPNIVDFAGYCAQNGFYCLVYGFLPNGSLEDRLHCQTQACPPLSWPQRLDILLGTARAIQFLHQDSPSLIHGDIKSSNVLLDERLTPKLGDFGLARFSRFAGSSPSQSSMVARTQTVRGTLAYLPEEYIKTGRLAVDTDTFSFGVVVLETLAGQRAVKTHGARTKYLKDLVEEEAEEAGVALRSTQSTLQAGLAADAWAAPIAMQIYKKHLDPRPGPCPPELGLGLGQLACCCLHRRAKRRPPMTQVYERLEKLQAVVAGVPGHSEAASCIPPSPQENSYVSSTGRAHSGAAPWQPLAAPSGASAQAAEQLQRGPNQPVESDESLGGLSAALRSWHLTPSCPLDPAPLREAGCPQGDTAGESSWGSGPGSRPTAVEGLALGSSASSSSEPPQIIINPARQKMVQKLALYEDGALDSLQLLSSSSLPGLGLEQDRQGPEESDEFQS

Key:
[1] = target: TLR4, Flag- or HA-tagged (UniProt O00206); test: co-IP; HEK293 cells transfected for 20 h; NP-40 lysis buffer (20 mM Tris-HCl pH 7.4, 150 mM NaCl, 1 mM EDTA, 1% NP-40); antibody (anti-HA in Fig. 1b) or control IgG with protein G sepharose, 4 °C, 3 h; washes with lysis buffer containing 0.5 M NaCl; immunoblot; with or without overexpressed SPOP in Fig. 4b and Supplementary Fig. S5e, f
[2] = target: endogenous mouse MyD88 of RAW264.7 cells (mouse (endogenous in RAW264.7)) (UniProt P22366); test: co-IP; endogenous proteins, RAW264.7 cells left untreated or treated with LPS (100 ng/mL) for the indicated times
[3] = target: endogenous MyD88 of THP-1 cells (human (endogenous in THP-1)) (UniProt Q99836); test: co-IP; endogenous proteins, THP-1 cells (wild type or SPOP-deficient) treated with LPS (100 ng/mL) for the indicated times; lysed and precipitated as for the transfected cells

binding [1] | Substance | further results
binds | MyD88 adapter-like (Mal), Flag- or HA-tagged (from UniProt P58753 1-221) | –
binds | myeloid differentiation primary response gene 88 (MyD88), Flag- or HA-tagged, full length (from UniProt Q99836 1-296) | –
– | endogenous mouse SPOP of RAW264.7 cells (from UniProt Q6ZWS8 1-374) | binding [2]: binds
– | endogenous IRAK1 of THP-1 cells (from UniProt P51617 1-712) (enzyme) | binding [3]: binds
